From PMC7512061
No constants are given. Whether binding was seen depends on the method and setting. Binding seen in cells or lysates may run through a third protein. Some results given as binding are weak or reduced against the parent protein; the word gives no strength.

By UniProt entry, the sequences of proteins in these tests, tags left out.
UniProt Q00987: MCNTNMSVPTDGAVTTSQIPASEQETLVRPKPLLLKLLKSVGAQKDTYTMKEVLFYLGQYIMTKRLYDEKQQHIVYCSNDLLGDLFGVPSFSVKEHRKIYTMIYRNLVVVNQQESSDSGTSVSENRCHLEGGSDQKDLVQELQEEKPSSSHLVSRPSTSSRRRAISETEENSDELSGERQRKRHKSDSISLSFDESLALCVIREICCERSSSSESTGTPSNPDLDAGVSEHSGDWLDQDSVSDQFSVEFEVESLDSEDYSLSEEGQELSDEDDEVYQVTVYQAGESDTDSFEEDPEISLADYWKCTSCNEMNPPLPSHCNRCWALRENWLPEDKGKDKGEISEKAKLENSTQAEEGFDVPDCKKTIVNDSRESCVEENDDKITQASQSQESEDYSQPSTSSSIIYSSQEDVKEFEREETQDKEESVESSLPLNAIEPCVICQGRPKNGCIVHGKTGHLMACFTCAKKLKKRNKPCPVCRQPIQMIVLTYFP

Molecular target: MDM2 (human (endogenous in NB-39-nu)) (UniProt Q00987)
Assay: co-IP; whole-cell lysates (5 mg, 1% NP-40 buffer) of NB-39-nu cells treated with 1 uM PF-477736 for 24 h; anti-MDM2 antibody (SMP14) or normal mouse IgG with protein-A/G magnetic beads, overnight at 4°C; blot with anti-AZI1 antibody

- binding: binds
B1: centrosome-associated protein 131 (CEP131) (protein, UniProt Q9UPN4 1-1083)
chain: MKGTRAIGSVPERSPAGVDLSLTGLPPPVSRRPGSAATTKPIVRSVSVVTGSEQKRKVLEATGPGGSQAINNLRRSNSTTQVSQPRSGSPRPTEPTDFLMLFEGSPSGKKRPASLSTAPSEKGATWNVLDDQPRGFTLPSNARSSSALDSPAGPRRKECTVALAPNFTANNRSNKGAVGNCVTTMVHNRYTPSERAPPLKSSNQTAPSLNNIIKAATCEGSESSGFGKLPKNVSSATHSARNNTGGSTGLPRRKEVTEEEAERFIHQVNQATVTIQRWYRHQVQRRGAGAARLEHLLQAKREEQRQRSGEGTLLDLHQQKEAARRKAREEKARQARRAAIQELQQKRALRAQKASTAERGPPENPRETRVPGMRQPAQELSPTPGGTAHQALKANNTGGGLPAAGPGDRCLPTSDSSPEPQQPPEDRTQDVLAQDAAGDNLEMMAPSRGSAKSRGPLEELLHTLQLLEKEPDVLPRPRTHHRGRYAWASEVTTEDDASSLTADNLEKFGKLSAFPEPPEDGTLLSEAKLQSIMSFLDEMEKSGQDQLDSQQEGWVPEAGPGPLELGSEVSTSVMRLKLEVEEKKQAMLLLQRALAQQRDLTARRVKETEKALSRQLQRQREHYEATIQRHLAFIDQLIEDKKVLSEKCEAVVAELKQEDQRCTERVAQAQAQHELEIKKLKELMSATEKARREKWISEKTKKIKEVTVRGLEPEIQKLIARHKQEVRRLKSLHEAELLQSDERASQRCLRQAEELREQLEREKEALGQQERERARQRFQQHLEQEQWALQQQRQRLYSEVAEERERLGQQAARQRAELEELRQQLEESSSALTRALRAEFEKGREEQERRHQMELNTLKQQLELERQAWEAGRTRKEEAWLLNREQELREEIRKGRDKEIELVIHRLEADMALAKEESEKAAESRIKRLRDKYEAELSELEQSERKLQERCSELKGQLGEAEGENLRLQGLVRQKERALEDAQAVNEQLSSERSNLAQVIRQEFEDRLAASEEETRQAKAELATLQARQQLELEEVHRRVKTALARKEEAVSSLRTQHEAAVKRADHLEELLEQHRRPTPSTK
